Experimental findings from publication PMC12748195 are described below.

Amino acid sequences for entries named in this document (tags omitted).
UniProt Q9UM07: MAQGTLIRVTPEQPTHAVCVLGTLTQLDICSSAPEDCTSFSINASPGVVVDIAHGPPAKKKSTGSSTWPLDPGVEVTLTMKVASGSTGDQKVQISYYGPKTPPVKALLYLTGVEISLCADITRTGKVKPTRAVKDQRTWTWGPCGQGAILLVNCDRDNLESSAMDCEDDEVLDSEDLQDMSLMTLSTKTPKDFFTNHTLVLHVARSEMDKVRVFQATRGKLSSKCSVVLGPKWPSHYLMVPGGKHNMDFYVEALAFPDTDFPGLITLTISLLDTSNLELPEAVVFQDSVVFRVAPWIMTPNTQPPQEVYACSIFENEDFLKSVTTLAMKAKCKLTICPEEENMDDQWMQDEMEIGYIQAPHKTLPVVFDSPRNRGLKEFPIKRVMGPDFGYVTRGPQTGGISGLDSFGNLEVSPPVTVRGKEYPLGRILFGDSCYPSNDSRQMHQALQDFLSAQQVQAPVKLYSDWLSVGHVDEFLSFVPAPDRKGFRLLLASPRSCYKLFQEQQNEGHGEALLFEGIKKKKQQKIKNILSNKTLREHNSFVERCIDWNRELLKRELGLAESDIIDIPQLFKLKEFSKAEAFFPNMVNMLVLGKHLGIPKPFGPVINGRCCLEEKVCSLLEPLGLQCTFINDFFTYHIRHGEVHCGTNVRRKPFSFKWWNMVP

No constants are given. Whether binding was seen depends on the method and setting. In cells and extracts the contact can be indirect. Some binding calls cover weakened binding; strength is not graded here.

Experiment [1] addresses peptidylarginine deiminase 4 (human (endogenous in primary neutrophils)) (UniProt Q9UM07). Kind of experiment: condition: only unstimulated, resting neutrophils (no PMA); co-IP; lysate of unstimulated, resting primary human neutrophils (no PMA); protein A/G magnetic beads with anti-PAD4 and anti-S100A8/A9 antibodies, overnight at 4°C; Western blot. For orientation: A western blot detects proteins with antibodies after separation by electrophoresis.

The target is the same in experiment [2]. Kind of experiment: co-IP; lysate of PMA-stimulated primary human neutrophils (IP lysis buffer: 25 mM Tris-HCl pH 7.4, 150 mM NaCl, 1% NP-40, 1 mM EDTA, 5% glycerol); protein A/G magnetic beads with anti-PAD4 and anti-S100A8/A9 antibodies, overnight at 4°C; Western blot; also with DNase I treatment of the lysate before the co-IP (interaction persisted).

B1: S100A8/S100A9 heterodimer (complex, UniProt P05109 1-93; P06702 1-114)
chain 1: MLTELEKALNSIIDVYHKYSLIKGNFHAVYRDDLKKLLETECPQYIRKKGADVWFKELDINTDGAVNFQEFLILVIKMGVAAHKKSHEESHKE
chain 2: MTCKMSQLERNIETIINTFHQYSVKLGHPDTLNQGEFKELVRKDLQNFLKKENKNEKVIEHIMEDLDTNADKQLSFEEFIMLMARLTWASHEKMHEGDEGPGHHHKPGLGEGTP
Regarding B1, the binding entry in experiment [1] is “no binding”; in experiment [2] it was “binds”.
